Test results from patent publication US8920851B2, “Treatment of neurodegenerative diseases” (Velacor Therapeutics Pty Ltd, priority 2006, dated 2014).
At least one compound was matched to its structure with a doubt left.

The chains behind the UniProt entries cited, without tags or fusion partners.
UniProt P67775, whole entry: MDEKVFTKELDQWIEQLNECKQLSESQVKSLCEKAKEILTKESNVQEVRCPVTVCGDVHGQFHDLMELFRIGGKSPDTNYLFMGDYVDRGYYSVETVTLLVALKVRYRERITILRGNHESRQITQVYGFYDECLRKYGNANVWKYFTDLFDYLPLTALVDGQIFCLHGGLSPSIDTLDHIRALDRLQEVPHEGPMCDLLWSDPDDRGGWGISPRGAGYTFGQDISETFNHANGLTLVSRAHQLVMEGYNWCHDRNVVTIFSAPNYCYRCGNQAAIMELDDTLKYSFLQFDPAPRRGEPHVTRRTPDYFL

Assays:
p70S6K = type: cell-based, human
Experimental: 5×10^5 PC3 prostate carcinoma cells were plated per well of a 6-well plate, allowed to attach for 8 hours, then serum starved overnight. […] Equal amounts of whole cell lysates (75 μg) were resolved by SDS-PAGE, and the level of p70S6K phosphorylation determined by immunoblot analysis with an antibody that specifically recognizes the p70S6K protein when phosphorylated on Thr389. Comparison is made with the protein loading control β tubulin.

PP2A A-C dimer = target: T1, PP2A A-C dimer (Homo sapiens, UniProt P67775); experiment: Phosphopeptide / malachite green assay with purified PP2A; type: biochemical; conditions: 50 μM of each selenium compound
T1 construct: purified PP2A A-C dimer purified from human red blood cells; purchased Upstate 14-111 (lot #28002); host or cells: human red blood cells (native purification)
Experimental: The amount of inorganic phosphate released by enzymatic activity was determined by the addition of malachite green, and absorbance read at 590 nm. Malachite green forms a stable green complex in the presence of molybdate and orthophosphate, allowing the concentration of inorganic phosphate present to be measured. Data is presented as mean absorbance at 590 nm from at least three independent experiments, ±SEM.
1 mg of synthetic phosphopeptides K-R-pT-I-R-R (Upstate #12-219) and R-R-A-pS-V-A (Upstate #12-220) were dissolved in 1.10-1.285 ml of dH2O to prepare a 1 mM solution, then aliquoted and stored at −20° C. until use. 0.01-0.05 U of purified PP2A A-C dimer purified from human red blood cells, or 0.05 U of rabbit PP1 purified from skeletal muscle was mixed with 500 μM of phosphopeptide and incubated in the presence of various treatments as indicated at 37° C. on a heating block for 15 min. Each reaction was made up to a total volume of 25 μl with pNPP buffer (50 mM Tris-HCl, pH 7.0, 100 μM CaCl2). The enzyme reaction was terminated by adding 100 μl of malachite green solution (0.034% malachite green in 10 mM ammonium molybdate, 1 N HCl, 3.4% ethanol, 0.01% Tween-20). Malachite green forms a stable green complex in the presence of molybdate and orthophosphate, allowing the amount of inorganic phosphate present to be measured. Absorbance was read in duplicate for each sample at 590 nm.

[1] = target: T2, human PP2A A-C heterodimer (Homo sapiens, UniProt P67775); type: biochemical; conditions: 5 mM of each selenium compound
T2 construct: purified PP2A A-C dimer purified from human red blood cells; purchased Upstate 14-111 (lot #28002); host or cells: human red blood cells (native purification)
Experimental: In initial assays a chemical substrate of phosphatase enzymatic action, para-nitrophennylphosphate (pNPP) was used, which following hydrolysis of the phosphate moiety generates para-nitrophenol, an intensely yellow chromogen which is soluble under alkaline conditions. […] Absorbance of each sample was measured in duplicate at 405 nm with 590 nm as a reference. PP2A activity was calculated using the following equation: activity=(sample vol in liters)×A405/1.78×104M^−1 cm^−1 (extinction coefficient)×0.25 cm×15 minutes×0.05 U enzyme Data is presented as mean relative phosphatase activity ±SEM from at least three independent experiments.
Para-nitrophennylphosphate (PNPP) is a chemical substrate of phosphatase enzymes, which following hydrolysis of the phosphate moiety generates para-nitrophenol, an intensely yellow chromogen, soluble under alkaline conditions. In assays measuring relative phosphatase activity, 0.05 U of purified PP2A was mixed with 5 μl of 40 mM NiCl2 and 5 μl of BSA solution (5 mg/ml) in a microcentrifuge tube. Various treatments were added as indicated, and the volume adjusted to 80 μl with pNPP assay buffer. […] Absorbance of each sample was measured in duplicate at 405 nm with 590 nm as a reference. PP2A activity was calculated using the following equation: activity=(Sample volume in liters)×A405/1.78×10^4M^−1cm^−1 (Extinction coefficient)×0.25 cm×15 min×0.05 U enzyme.

Compound	p70S6K phosphorylation on Thr389 (p70S6K)	PP2A phosphatase activity, serine phosphopeptide as substrate (PP2A A-C dimer)	PP2A phosphatase activity, pNPP as substrate [1]
O=c1cc(N2CCOCC2)oc2c(-c3ccccc3)cccc12 [LY294002, reference compound]	abolished		
O=[Se](O)O [sodium selenite, reference compound]		neither sodium selenite nor selenomethionine significantly affected PP2A phosphatase activity	neither sodium selenite nor selenomethionine significantly affected PP2A phosphatase activity
